Experimental data reported in patent US9150632B2 (Indiana University Research and Technology Corporation, priority 2009, dated 2015).

Assay: general procedure: Boc solid-phase peptide synthesis; Boc Thr(OBzl) Pam resin; methoxybenzhydrylamine resin; 4-methylbenzhydrylamine (MBHA) resin; HBTU (FastBoc single couplings); DEPBT for lactam peptides; PyBOP for on-resin l
Conditions: conjugation step

Substance	difficulty met	final HPLC purity (analytical RP-HPLC, Zorbax C8, 214 nm, MALDI or ESI mass spectral analysis)	final HPLC purity (214 nm)
Glucagon Cys^24 Mal-PEG-20K	The product ratio had not significantly improved	˜90%	
Glucagon Cys^29 Mal-PEG-5K			greater than 95%
